Experimental findings from PMC13132549 are described below.

Chains of the proteins cited; added tags and fusions are not shown. Lines headed by an entry give the natural chain unless they say otherwise; changes in a name come on top. Residues count along the entry.
UniProt P48443: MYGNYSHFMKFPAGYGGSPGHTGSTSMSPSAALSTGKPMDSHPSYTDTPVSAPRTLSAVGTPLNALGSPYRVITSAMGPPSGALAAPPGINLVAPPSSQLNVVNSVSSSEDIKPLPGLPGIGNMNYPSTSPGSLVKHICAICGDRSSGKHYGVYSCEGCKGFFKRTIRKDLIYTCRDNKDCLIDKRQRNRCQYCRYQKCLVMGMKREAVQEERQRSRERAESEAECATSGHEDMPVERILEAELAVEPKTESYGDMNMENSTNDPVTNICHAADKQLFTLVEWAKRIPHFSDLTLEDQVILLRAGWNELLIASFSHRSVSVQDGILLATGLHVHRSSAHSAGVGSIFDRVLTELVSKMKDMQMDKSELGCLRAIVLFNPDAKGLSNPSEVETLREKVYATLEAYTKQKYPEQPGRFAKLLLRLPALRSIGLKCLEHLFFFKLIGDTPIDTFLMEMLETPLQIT
UniProt P22736, residues 356-598: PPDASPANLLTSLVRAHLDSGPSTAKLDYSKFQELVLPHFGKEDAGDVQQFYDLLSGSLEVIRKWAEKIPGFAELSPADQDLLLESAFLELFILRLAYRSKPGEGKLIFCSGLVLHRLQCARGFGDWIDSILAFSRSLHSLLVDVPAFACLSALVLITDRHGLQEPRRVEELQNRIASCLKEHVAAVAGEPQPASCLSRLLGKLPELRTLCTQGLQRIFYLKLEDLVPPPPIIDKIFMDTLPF

In assay [1] the target is RXRγ (NR2B3) ligand-binding domain (LBD) (human) (UniProt P48443). Description: ITC; Nur77 LBD titrated into RXRγ LBD without ligand at 15 °C; both purified. On the technique in general: In ITC the heat of successive injections is recorded.
Assay [2] has the same target. Nature of the assay: SEC; Nur77 LBD and RXRγ LBD (each 700 µM) incubated 16 hr at 4 °C, heterodimer isolated on Superdex 75 and analysed on Superdex 75 Increase 10/300 GL with or without two molar equivalents of RXR ligand; 20 mM potassium phosphate pH 7.4, 50 mM KCl, 0.5 mM EDTA; both purified.
Assay [3] shares this target. Nature of the assay: AlphaScreen or HTRF; TR-FRET: 4 nM 6xHis-RXRγ LBD, 1 nM Tb-anti-His antibody, 400 nM FITC-PGC1α peptide, DMSO or RXR ligand; 20 mM potassium phosphate pH 7.4, 50 mM KCl, 5 mM TCEP, 0.005% Tween 20; 4 °C; both purified.

No constants are given. Whether binding was seen depends on the method and setting. Binding can be weak; no strength is given.

“Nur77 (NR4A1) ligand-binding domain (LBD) (from UniProt P22736 356-598) (domain or fragment)”: the binding result in assay [1] and in assay [2] was “binds” throughout.

B1: FITC-labeled LXXLL-containing peptide derived from human PGC-1α (137-155) (peptide)
peptide: EAEEPSLLKKLLLAPANTQ
modifications: N-terminal FITC label; amidated C-terminus
For the molecule B1, the binding entry in assay [3] is reported as “binds”.
